The source of these data is publication PMC8138766.

Sequences of proteins named here, by UniProt entry; tags and fusion partners are left off.
UniProt P52286: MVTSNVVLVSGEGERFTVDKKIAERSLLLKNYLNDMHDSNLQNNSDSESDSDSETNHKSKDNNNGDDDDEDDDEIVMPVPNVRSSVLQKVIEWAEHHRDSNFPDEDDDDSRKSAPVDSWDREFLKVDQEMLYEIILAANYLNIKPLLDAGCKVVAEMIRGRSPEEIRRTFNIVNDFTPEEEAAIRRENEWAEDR

No constants are given. Whether binding was seen depends on the method and setting. Binding seen in cells or lysates may run through a third protein. Some binding calls cover weakened binding; strength is not graded here. Tags and fused reporters may be left off the sequences shown.

The target of this assay is T1, Rav2-FLAG (yeast) (UniProt Q03956).
T1 sequence: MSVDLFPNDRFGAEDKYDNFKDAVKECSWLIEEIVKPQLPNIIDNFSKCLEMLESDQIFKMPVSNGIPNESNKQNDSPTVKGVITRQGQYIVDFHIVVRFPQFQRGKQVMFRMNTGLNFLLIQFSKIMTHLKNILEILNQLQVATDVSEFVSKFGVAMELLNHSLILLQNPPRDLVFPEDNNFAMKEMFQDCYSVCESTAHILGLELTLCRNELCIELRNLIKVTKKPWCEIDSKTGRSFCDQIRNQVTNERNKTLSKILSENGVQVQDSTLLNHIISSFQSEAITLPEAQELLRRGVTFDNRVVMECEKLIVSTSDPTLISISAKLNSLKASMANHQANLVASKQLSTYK
Briefly: co-IP; anti-FLAG M2 affinity column on cleared lysate of galactose-induced yeast (bait Rav2-FLAG), PBS or TBSE pH 7.4, elution with FLAG peptide; Coomassie SDS-PAGE and immunoblots for V1 subunits A, B and C.

Turning to Skp1–His6 (from UniProt P52286 1-194), the binding entry is given as “binds”.
